According to paper PMC6350303:
No constants are given. Whether binding was seen depends on the method and setting. In cells and extracts the contact can be indirect. Some results given as binding are weak or reduced against the parent protein; the word gives no strength. For part of these data: Tags and fused reporters may be left off the sequences shown.

By UniProt entry, the sequences of proteins in these tests, tags left out.
UniProt P35222: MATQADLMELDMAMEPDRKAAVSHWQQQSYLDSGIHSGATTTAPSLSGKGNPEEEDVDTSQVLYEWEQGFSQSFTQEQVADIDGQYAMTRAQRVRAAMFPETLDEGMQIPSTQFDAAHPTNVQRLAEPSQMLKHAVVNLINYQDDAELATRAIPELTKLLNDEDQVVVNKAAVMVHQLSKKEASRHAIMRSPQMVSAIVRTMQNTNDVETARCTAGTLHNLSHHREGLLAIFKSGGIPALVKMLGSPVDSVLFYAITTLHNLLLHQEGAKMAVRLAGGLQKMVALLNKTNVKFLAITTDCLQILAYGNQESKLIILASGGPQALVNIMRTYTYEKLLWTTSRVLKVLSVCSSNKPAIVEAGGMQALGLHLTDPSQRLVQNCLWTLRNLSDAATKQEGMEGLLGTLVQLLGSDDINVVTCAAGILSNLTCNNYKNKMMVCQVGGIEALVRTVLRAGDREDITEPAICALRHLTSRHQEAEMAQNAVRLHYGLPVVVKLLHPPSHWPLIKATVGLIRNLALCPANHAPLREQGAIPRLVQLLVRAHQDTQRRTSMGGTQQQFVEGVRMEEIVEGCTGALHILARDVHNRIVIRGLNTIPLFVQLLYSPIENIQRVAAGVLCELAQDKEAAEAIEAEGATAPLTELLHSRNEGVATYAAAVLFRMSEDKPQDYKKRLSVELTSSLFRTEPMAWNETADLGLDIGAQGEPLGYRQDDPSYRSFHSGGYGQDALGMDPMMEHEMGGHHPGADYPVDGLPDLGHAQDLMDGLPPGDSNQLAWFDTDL

What was measured:
[1] = target: T1, Histone deacetylase enzyme-7 (HDAC7), endogenous (human (endogenous in U87 and U251)) (UniProt Q8WUI4); test: co-IP; U87 and U251 cell lysates immunoprecipitated with anti-HDAC7 antibody or control IgG; anti-β-catenin immunoblotting
T1 sequence: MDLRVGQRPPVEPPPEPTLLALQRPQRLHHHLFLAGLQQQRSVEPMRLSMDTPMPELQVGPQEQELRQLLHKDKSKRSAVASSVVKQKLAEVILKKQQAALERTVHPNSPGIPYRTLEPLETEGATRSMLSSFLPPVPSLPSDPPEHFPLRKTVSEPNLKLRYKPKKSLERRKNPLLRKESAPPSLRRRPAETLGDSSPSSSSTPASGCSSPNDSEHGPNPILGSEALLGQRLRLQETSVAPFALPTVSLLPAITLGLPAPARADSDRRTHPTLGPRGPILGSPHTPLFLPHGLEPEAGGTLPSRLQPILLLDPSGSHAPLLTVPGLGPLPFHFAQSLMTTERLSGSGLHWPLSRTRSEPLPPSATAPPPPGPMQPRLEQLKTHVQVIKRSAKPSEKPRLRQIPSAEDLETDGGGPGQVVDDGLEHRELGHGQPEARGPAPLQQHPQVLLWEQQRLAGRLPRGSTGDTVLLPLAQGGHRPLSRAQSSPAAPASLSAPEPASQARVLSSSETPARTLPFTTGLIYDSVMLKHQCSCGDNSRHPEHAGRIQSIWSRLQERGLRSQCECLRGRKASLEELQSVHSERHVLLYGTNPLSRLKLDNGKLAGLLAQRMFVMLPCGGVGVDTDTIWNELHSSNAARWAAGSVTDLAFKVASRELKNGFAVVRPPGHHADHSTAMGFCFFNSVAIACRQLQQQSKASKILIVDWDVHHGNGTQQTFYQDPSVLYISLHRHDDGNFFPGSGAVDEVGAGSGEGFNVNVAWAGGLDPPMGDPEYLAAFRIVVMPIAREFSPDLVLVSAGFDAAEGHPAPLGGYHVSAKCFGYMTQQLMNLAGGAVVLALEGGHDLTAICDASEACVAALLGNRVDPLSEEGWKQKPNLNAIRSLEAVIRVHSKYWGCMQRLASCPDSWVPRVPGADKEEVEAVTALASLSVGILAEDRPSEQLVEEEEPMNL

[2] = target: β-catenin, endogenous (human (endogenous in U87 and U251)) (UniProt P35222); test: co-IP; U87 cell lysates immunoprecipitated with anti-ZNF326 or anti-β-catenin antibody and control IgG; immunoblotting
GST-β-catenin = GST-β-catenin (UniProt P35222); test: pull-down; glutathione-Sepharose beads coupled with GST or purified GST-β-catenin, incubated with lysates of HEK293 cells transfected with Myc/DDK-pCMV6-ZNF326 overnight at 4 °C (legend: purified Myc-ZNF326, 6 h); immunoblotting; only the target purified

β-catenin, endogenous (from UniProt P35222 1-781)
binding [1]: binds

B1: Zinc-finger protein-326 (ZNF326), endogenous (protein, UniProt Q5BKZ1 1-582)
chain: MDFEDDYTHSACRNTYQGFNGMDRDYGPGSYGGMDRDYGHGSYGGQRSMDSYLNQSYGMDNHSGGGGGSRFGPYESYDSRSSLGGRDLYRSGYGFNEPEQSRFGGSYGGRFESSYRNSLDSFGGRNQGGSSWEAPYSRSKLRPGFMEDRGRENYSSYSSFSSPHMKPAPVGSRGRGTPAYPESTFGSRNYDAFGGPSTGRGRGRGHMGDFGSIHRPGIVVDYQNKSTNVTVAAARGIKRKMMQPFNKPSGTFIKKPKLAKPMEKISLSKSPTKTDPKNEEEEKRRIEARREKQRRRREKNSEKYGDGYRMAFTCSFCKFRTFEEKDIELHLESSSHQETLDHIQKQTKFDKVVMEFLHECMVNKFKKTSIRKQQTNNQTEVVKIIEKDVMEGVTVDDHMMKVETVHCSACSVYIPALHSSVQQHLKSPDHIKGKQAYKEQIKRESVLTATSILNNPIVKARYERFVKGENPFEIQDHSQDQQIEGDEEDEEKIDEPIEEEEDEDEEEEAEEVGEVEEVEEVEEVREGGIEGEGNIQGVGEGGEVGVVGEVEGVGEVEEVEELEEETAKEEPADFPVEQPEEN
binding [2]: binds

B2: Myc/DDK-ZNF326 (protein, UniProt Q5BKZ1 1-582)
chain: MDFEDDYTHSACRNTYQGFNGMDRDYGPGSYGGMDRDYGHGSYGGQRSMDSYLNQSYGMDNHSGGGGGSRFGPYESYDSRSSLGGRDLYRSGYGFNEPEQSRFGGSYGGRFESSYRNSLDSFGGRNQGGSSWEAPYSRSKLRPGFMEDRGRENYSSYSSFSSPHMKPAPVGSRGRGTPAYPESTFGSRNYDAFGGPSTGRGRGRGHMGDFGSIHRPGIVVDYQNKSTNVTVAAARGIKRKMMQPFNKPSGTFIKKPKLAKPMEKISLSKSPTKTDPKNEEEEKRRIEARREKQRRRREKNSEKYGDGYRMAFTCSFCKFRTFEEKDIELHLESSSHQETLDHIQKQTKFDKVVMEFLHECMVNKFKKTSIRKQQTNNQTEVVKIIEKDVMEGVTVDDHMMKVETVHCSACSVYIPALHSSVQQHLKSPDHIKGKQAYKEQIKRESVLTATSILNNPIVKARYERFVKGENPFEIQDHSQDQQIEGDEEDEEKIDEPIEEEEDEDEEEEAEEVGEVEEVEEVEEVREGGIEGEGNIQGVGEGGEVGVVGEVEGVGEVEEVEELEEETAKEEPADFPVEQPEEN
binding (GST-β-catenin): binds
